## Percent effect of library compounds

T. brucei: 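Whole-parasite assay of Trypanosoma brucei over 72 hours; the read-out is not stated. Compounds at 30 µM. Direction is inferred from retests: higher values go with stronger inhibition. Values scatter widely below zero; nearly all retest evidence comes from the higher of the two concentrations used. Of about 64,000 compounds tested this way, about 940 (1.5%) reached 50% or more in at least one test.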
Toxoplasma: 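Assay of Toxoplasma gondii numbers, read through their beta-galactosidase reporter with a colour substrate. Concentration: 10 µM. The record gives no direction; the compounds picked for IC50 retests had high values, so higher reads as fewer parasites. Size under these conditions: about 67,000 compounds, about 260 of them at 50% or above in at least one test.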

Values are the deposited “Percent Effect”, in %. How 0% and 100% were set is not recorded. Most values in the screen are low, and negative values occur. The compounds are a random part of those screened.

O=C(Nc1nnn[nH]1)c1ccc(-n2cccc2)c(F)c1 gave T. brucei: 0.537%; Toxoplasma: -0.4113%.
CCn1cc(S(=O)(=O)N(CCc2ccccc2)Cc2ccn(C)n2)cn1 gave T. brucei: -8.87%; Toxoplasma: 6.801%.
[H][C@@]12CCN(C(=O)CC(C)(C)C)C[C@]1([H])CCN(CCc1c[nH]cn1)C(=O)C2 gave T. brucei: -3.854%; Toxoplasma: 8.847%.
COCC(C)N(C)C(=O)CCc1c(C)nc2c(C#N)cnn2c1C (centres unmarked) gave T. brucei: -59.74%; Toxoplasma: -2.397%.
CC(C)n1cnnc1CN(C)C(=O)c1ccc[nH]1 gave T. brucei: 16.15%; Toxoplasma: 3.968%.
CN(C)c1cc2c(nn1)CCN(C(=O)C1CCCc3ccccc31)C2 (centres unmarked) gave T. brucei: -0.05124%; Toxoplasma: -1.819%.
CN(C)C(=O)c1ccc(-c2cccc3c2CCNC3)o1 gave T. brucei: 4.991%; Toxoplasma: 9.836%.
c1cncc(-c2nc3c(c(NCC4(c5ccncc5)CC4)n2)CCC3)c1 gave T. brucei: -5.668%; Toxoplasma: -3.338%.
N#CCCN(CC1CCOC1)S(=O)(=O)c1c(F)cccc1Cl (centres unmarked) gave T. brucei: -6.874%; Toxoplasma: 4.966%.
[H][C@@]12CCN(C(=O)c3ccnnc3)C[C@@]1([H])O[C@H](c1nc(C)cs1)C2 gave T. brucei: 31.65%; Toxoplasma: -1.441%.
Cl.O=C(N1CCCC1)N1CCc2c(CNc3ncccn3)cncc2C1 gave T. brucei: -16.45%; Toxoplasma: -2.761%.
COc1ccc(C(C(=O)O)N2CCC(Cn3cccn3)CC2)cc1F (centres unmarked) gave T. brucei: -17.8%; Toxoplasma: 19.36%.
O=C(NCC(c1cccs1)N1CCOCC1)c1ccc(F)cc1Cl (centres unmarked) gave T. brucei: -18.15%; Toxoplasma: 1.925%.
Cc1ccc(O)c(C(=O)N2CCCC2CC(=O)c2cnn(C)c2)c1 (centres unmarked) gave T. brucei: -24.09%; Toxoplasma: -4.41%.
Cc1ccc(N2CCCN(C(=O)CCc3nccs3)CC2)nn1 gave Toxoplasma: -19%.
Cl.O=C([C@H]1CCCO1)N1CCC2(CC1)CNCc1ccccc12 gave T. brucei: -50.48%; Toxoplasma: -5.232%.
Cc1ccc2c(c1)C(=O)NCC1(CCN(C(=O)c3ccnn3C)CC1)O2 gave T. brucei: 15.34%; Toxoplasma: 6.893%.
Cn1ccc(C(=O)N(CC(F)F)c2cccc(Cl)c2)cc1=O gave T. brucei: 1.977%; Toxoplasma: 15.67%.
Cc1cnn(C2CCCN(C(=O)c3ccc(-n4ccnc4)cc3)C2)c1 (centres unmarked) gave T. brucei: -1.438%; Toxoplasma: -13.25%.
[H][C@]12CCN(C(=O)Nc3ccccc3C)CC[C@@]1([H])S(=O)(=O)N(CCOC)C2 gave T. brucei: -19.43%; Toxoplasma: -1.207%.
O=c1cc(N2CCCCC2)cnn1CC(O)C(F)(F)F (centres unmarked) gave T. brucei: -52.97%; Toxoplasma: 7.26%.
CNc1ccc(CC2CCCN(C(=O)c3cnc(C)nc3)C2)nn1 (centres unmarked) gave T. brucei: -13.78%; Toxoplasma: -3.338%.
O=C(O)C(F)(F)F.O=C1NC2(CCN(C(=O)c3ccccc3)CC2)CC1c1cccnc1 (centres unmarked) gave T. brucei: 27.87%; Toxoplasma: 16.78%.
CC(C)(C)C(=O)N1CCCC1(C(=O)N1CCCC1)c1cnccn1 (centres unmarked) gave T. brucei: -20.6%; Toxoplasma: 13.26%.
CN(C)CCn1ccnc1C1CCCN(c2ncc(Cl)cc2F)C1 (centres unmarked) gave T. brucei: -71.36%; Toxoplasma: 14.83%.

For reference, 3 entries once more:

Compound	T. brucei	Toxoplasma
c1cncc(-c2nc3c(c(NCC4(c5ccncc5)CC4)n2)CCC3)c1	-5.668%	-3.338%
Cn1ccc(C(=O)N(CC(F)F)c2cccc(Cl)c2)cc1=O	1.977%	15.67%
CNc1ccc(CC2CCCN(C(=O)c3cnc(C)nc3)C2)nn1 (centres unmarked)	-13.78%	-3.338%

Measurements from “University of Dundee, Small-Polar-MMV Screening Library” (2021), ChEMBL document CHEMBL3988442.